Source: paper PMC9513234 (Frontiers in Chemistry, 2022)
Bridges are numbered along the chain shown (N, C = ends). [ ]: non-standard residue; d: D form. NMeR = CN[C@@H](CCCNC(=N)N)C(=O)O; AllylGly = C=CC[C@H](N)C(=O)O; NMeK = CN[C@@H](CCCCN)C(=O)O

How the values were obtained:
peptide synthesis = conditions: whole synthesis
[1] = solid-phase peptide synthesis; conditions: whole synthesis, scale 0.2 mmol
[2] = solid-phase peptide synthesis; conditions: whole synthesis; for final HPLC purity: 214 nm; for final HPLC purity / isolated yield: scale of the general procedure 0.1 mmol
[3] = general procedure: Fmoc solid-phase peptide synthesis; HMPB-AM resin; HCTU/DIPEA; conditions: whole synthesis, scale 0.1 mmol

Substance | final HPLC purity (peptide synthesis) | isolated yield (peptide synthesis) [% yield] | final HPLC purity [2] | isolated yield [2] | further results
(CH 3 ) 2 CH 2 CH 2 OCO-NH-VDCFLSRPTEKT-CONH 2 | ca. 98% | 49 | – | – | –
CH 3 CH 2 OCO-NH-VDCFLSRPTEKT-CONH 2 (N-ethoxycarbonyl; C-terminal amide) | ca. 96% | 43 | – | – | –
CFLSRPTEKTVD-COS-CH2CH2Ala-OH | – | – | – | – | crude mass [1]: 271 mg
(CH 3 ) 2 CH 2 CH 2 OCO-NH-VDCFLSRPTEKT-CO2H (N-terminal isopentyloxycarbonyl cap) | ca. 98% | 49 | – | – | –
N 3 -VDCFLSRPTEKT-CO2H (N-terminal azide) | ca. 95% | 18 | – | – | –
CH 3 CH 2 CH 2 CO-NH-VDCFLSRPTEKT-CONH 2 (N-butanoyl; C-terminal amide) | ca. 98% | 44 | – | – | –
H2N-VDCFLSRPTEkT-CO2H | – | – | ca. 99% | 26% | isolated mass ([2]; scale 0.1 mmol): 36.3 mg
H2N-VDCFLSRPTEKT-CH 2 OH (C-terminal alcohol) | ca. 97% | 2 | – | – | –
H-[AllylGly]VDCFLSRPTEKT[AllylGly]-OH (staple 1-14; SMILES CC(C)C[C@@H]1NC(=O)[C@H](Cc2ccccc2)NC(=O)[C@H](CS)NC(=O)[C@H](CC(=O)O)NC(=O)[C@H](C(C)C)NC(=O)[C@@H](N)CC=CC[C@@H](C(=O)O)NC(=O)[C@H]([C@@H](C)O)NC(=O)[C@H](CCCCN)NC(=O)[C@H](CCC(=O)O)NC(=O)[C@H]([C@@H](C)O)NC(=O)[C@@H]2CCCN2C(=O)[C@H](CCCNC(=N)N)NC(=O)[C@H](CO)NC1=O) | – | – | ca. 95% | 1.4% | isolated mass [3]: 2.26 mg
H2N-VDCFLSRPTEKT-COSCH 2 CH 2 Gly-CO 2 H (C-terminal thioester to Gly) | ca. 97% | – | – | – | –
H-VDCFLSRPTE[NMeK]T-OH (SMILES CC(C)C[C@H](NC(=O)[C@H](Cc1ccccc1)NC(=O)[C@H](CS)NC(=O)[C@H](CC(=O)O)NC(=O)[C@@H](N)C(C)C)C(=O)N[C@@H](CO)C(=O)N[C@@H](CCCNC(=N)N)C(=O)N1CCC[C@H]1C(=O)N[C@H](C(=O)N[C@@H](CCC(=O)O)C(=O)N(C)[C@@H](CCCCN)C(=O)N[C@H](C(=O)O)[C@@H](C)O)[C@@H](C)O) | – | – | ca. 99% | 47% | isolated mass [2]: 66.2 mg
PhCO-NH-VDCFLSRPTEKT-CO2H (N-benzoyl) | ca. 96% | 41 | – | – | –
H2N-VDCFLSrPTEKT-CO2H | – | – | ca. 97% | 16% | isolated mass ([2]; scale 0.1 mmol): 22.3 mg
CH 3 CH 2 CH 2 CO-NH-VDCFLSRPTEKT-CO2H (N-terminal butyryl cap) | ca. 98% | 44 | – | – | –
PhCO-NH-VDCFLSRPTEKT-CONH 2 | ca. 99% | 37 | – | – | –
H-[AllylGly]VDCFLSRPTE[AllylGly]T-OH (staple 1-12; SMILES CC(C)C[C@@H]1NC(=O)[C@H](Cc2ccccc2)NC(=O)[C@H](CS)NC(=O)[C@H](CC(=O)O)NC(=O)[C@H](C(C)C)NC(=O)[C@@H](N)CC=CC[C@@H](C(=O)N[C@H](C(=O)O)[C@@H](C)O)NC(=O)[C@H](CCC(=O)O)NC(=O)[C@H]([C@@H](C)O)NC(=O)[C@@H]2CCCN2C(=O)[C@H](CCCNC(=N)N)NC(=O)[C@H](CO)NC1=O) | – | – | ca. 95% | 2.4% yield | isolated mass [2]: 3.47 mg
H-VDCFLS[NMeR]PTEKT-OH (SMILES CC(C)C[C@H](NC(=O)[C@H](Cc1ccccc1)NC(=O)[C@H](CS)NC(=O)[C@H](CC(=O)O)NC(=O)[C@@H](N)C(C)C)C(=O)N[C@@H](CO)C(=O)N(C)[C@@H](CCCNC(=N)N)C(=O)N1CCC[C@H]1C(=O)N[C@H](C(=O)N[C@@H](CCC(=O)O)C(=O)N[C@@H](CCCCN)C(=O)N[C@H](C(=O)O)[C@@H](C)O)[C@@H](C)O) | – | – | ca. 96% | 31% | isolated mass [2]: 43.2 mg
CH 3 CH 2 OCO-NH-VDCFLSRPTEKT-CO2H (N-ethoxycarbonyl) | ca. 97% | 26 | – | – | –
